Library screen at single concentrations

The chains behind the UniProt entries cited, without tags or fusion partners.
UniProt P9WNZ1, whole entry: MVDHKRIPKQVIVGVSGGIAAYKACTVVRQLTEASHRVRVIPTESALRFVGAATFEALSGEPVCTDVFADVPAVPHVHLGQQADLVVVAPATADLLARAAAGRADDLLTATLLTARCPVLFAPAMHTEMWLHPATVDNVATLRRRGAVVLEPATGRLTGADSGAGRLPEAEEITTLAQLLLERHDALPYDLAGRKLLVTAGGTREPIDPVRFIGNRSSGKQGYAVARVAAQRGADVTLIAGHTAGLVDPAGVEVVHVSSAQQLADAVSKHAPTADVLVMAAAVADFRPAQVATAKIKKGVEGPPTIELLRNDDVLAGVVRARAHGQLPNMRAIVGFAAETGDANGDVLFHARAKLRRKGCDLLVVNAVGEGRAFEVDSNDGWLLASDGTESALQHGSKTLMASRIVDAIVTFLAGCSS

From ChEMBL document CHEMBL3988442, “University of Dundee, Small-Polar-MMV Screening Library” (2021).

A: 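Enzyme assay of CoaBC with a phosphate dye (Biomol Green) read at 650 nm. Target: Coenzyme A biosynthesis protein CoaBC, Mycobacterium tuberculosis (UniProt P9WNZ1). Compounds at 30 µM. Direction is inferred from only a few compounds that gave an IC50; most scored high, so higher reads as stronger inhibition. Most strong results did not repeat in a second test. Of about 67,000 compounds tested this way, about 40 (0.06%) reached 50% or more in at least one test.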
B: 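Cell assay of Leishmania donovani living inside macrophages; the read-out is not stated. Tested at 30 µM. Direction is inferred from retests: higher values go with stronger inhibition. Of about 69,000 compounds tested this way, about 1,000 (1.5%) reached 50% or more in at least one test.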

The filed quantity is “Percent Effect” (%). The record does not define 0% and 100%; most values in the screen are far below 50% and negative numbers occur (in some assays of this library far below -100). Compounds were drawn at random from those tested, without regard to their results. Two or more numbers in one place are separate tests of the same structure; such repeats can differ widely. A dash means the value is not listed here; it may have been measured.

compound	A	B
O=C(O)C(F)(F)F.O=C(O)C(F)(F)F.[H][C@]12C[C@@H](C(=O)N(C)Cc3ccccn3)CO[C@@]1([H])CCN(C)C2	-	55.09
CCc1cc(O)nc(C2CCCN(Cc3ccncc3)C2)n1 (stereo not shown)	0.4854	13.93 and 4.734
CCn1nc(C)c2c1cnn2CCNS(=O)(=O)c1cccs1	0.2551	29.79
CCc1noc(C(C)N2CCN(c3ccc(C#N)cc3F)CC2)n1 (stereo not shown)	8.502	46.06
Fc1cnc(N2CCO[C@H]3[C@H](OCCN4CCCC4)CC[C@@H]32)nc1	-1.733	-
CN(C)C(=O)CN1CCC2(CCCN(Cc3cccs3)C2)C1=O.O=C(O)C(F)(F)F (stereo not shown)	-	10.78
CC1CCN(C(=O)CSCc2noc(C(C)C)n2)CC1	-5.165	-38.59
CN(Cc1noc(C(C)(C)C)n1)CC1CCN(CCO)CC1	-11.22	19.56
CCc1nc(C2CCCN(c3nccc(C)n3)C2)no1 (stereo not shown)	5.055	2.5
[H][C@@]12C[C@H](C(=O)NCC3CC3)[C@@]([H])(CN(C(=O)NCc3ccccc3)C1)O2	-	18.17
O=C(CO)N1C[C@H]2CC[C@@H]1CN(C1Cc3ccccc3C1)C2	-2.643	-
CCCOc1ccc(CNCCn2cccn2)cc1	-0.8861	1.51
CCn1cc(CNCCNc2ncc(Cl)cc2Cl)cn1	-2.42	12.19
CCS(=O)(=O)NCCNCc1ccc(Cl)c2cccnc12	-16.47	13.78
CC(C)C1CCCN1CC(=O)NCc1ccc(OCC(N)=O)cc1 (stereo not shown)	-0.4673	29.11
CC(NCCCc1cnn(C)c1)c1ccc(Br)s1 (stereo not shown)	-8.065	14.01
O=C(Cn1ccc(=O)[nH]c1=O)NCc1cccnc1OCC(F)(F)F	0.7299	19.13
Cc1ccccc1OCCCC(=O)NC(C)c1nnc2n1CCC2 (stereo not shown)	7.567	25.19
CCN(Cc1ccoc1)C(=O)c1ccc(C)c(S(N)(=O)=O)c1	2.444	1.714
COc1ccc(C(O)CNc2c(C#N)c(=O)n(C)c(=O)n2C)cc1 (stereo not shown)	2.571	7.057
Fc1cnc(N2CCC3(CC2)CN(Cc2ccccn2)CCO3)nc1.O=C(O)C(F)(F)F.O=C(O)C(F)(F)F	-	-17.68 and -4.161
CC[C@@H]1N(CC2CCOCC2)CCC[C@]12CCC(=O)N2.O=C(O)C(F)(F)F	-	16.15
[H][C@@]12CCN(S(=O)(=O)Cc3ccc(C)cc3)[C@]1([H])CCC(=O)N2CC	-	17.88
Cc1cc(C)n(CCC(=O)N2CCCC(n3nc(C)nc3C)C2)n1 (stereo not shown)	1.523	-12.47
CN(C)C(=O)NCC(=O)N(C)Cc1cc(-c2ccccc2)no1	0.8464	23.57
CCNC(c1cccnc1)c1ccc(F)c(F)c1 (stereo not shown)	-7.05	26.64
Cc1oncc1C(=O)N1CC[C@H]2[C@H](CO[C@@H]2CNS(C)(=O)=O)C1	6.84	-
COc1ccc(C(=O)N2CC(=O)N(C3CCC3)CC(O)C2)c(OC)c1 (stereo not shown)	2.179	-0.7058
COc1ccc(CN2CCC(c3nnc(-c4scnc4C)o3)CC2)cc1	6.796	-3.343 and 9.895
CCN(Cc1nc2c(cnn2C)c(=O)[nH]1)c1cccc(F)c1	6.005	15
CC(C)OCCCNC(=O)CS(=O)(=O)Cc1ccc(Cl)cc1	-2.867	-19.7
CC(C)C(=O)N1CCC(NC2CCSCC2)C1 (stereo not shown)	-0.2439	25.24
COC(=O)c1ccc(CN2CCC(c3noc(C)n3)CC2)s1	6.397	29.95
Cn1ccnc1CNC(=O)c1ccnc(C2CCNCC2)c1	-7.152	-
O=C1CO[C@@H]2CN(Cc3cccnc3)C[C@H]2N1Cc1ccncc1	-1.261	-
Cc1n[nH]c(C)c1NC(=O)CN1CCc2c(nc(C3CC3)n2C)C1	-0.9639	-2.454
Cn1cccc1C(=O)N1CCC2(CCCN2S(C)(=O)=O)CC1	-31.16	8.764
Cc1ccc(CNC(=O)CN2CCN(CC(O)c3ccco3)CC2)cc1.Cl.Cl (stereo not shown)	-	24.36
Cc1oncc1C(=O)N[C@@H]1CN(C2CCC2)C[C@@H]2CCCO[C@@H]21	4.198	-
CC(C)c1cc(N2CCC(C(C)N3CCCC3)CC2)n2nccc2n1 (stereo not shown)	14.29	24.76
CNC(=O)N1Cc2cc(F)ccc2C2(CCN(C)CC2)C1.Cl	-	21.78
COCCNC(=O)[C@@H]1CC[C@@H]2[C@@H](CCN2c2ncc(F)cn2)O1	1.935	-
Cc1cc(C)c(CNC(=O)N(C)Cc2cccc(C#N)c2)c(=O)[nH]1	0.9126	3.558
COCCN1CCO[C@H]2CN(Cc3cccc(C)n3)C[C@H]21	6.559	-
COc1cc2c(cc1OC)CCN(C(=O)Cn1nc(C)cc1C)CC2	1.088	17.35
COCCN(Cc1cccnc1)S(=O)(=O)c1ccc(F)cc1C	0.4132	0.3844
CCOCc1ccccc1NC(=O)NCC(C)(O)c1cc(C)oc1C (stereo not shown)	9.153	11.72
COc1ccccc1C(=O)NC(C)CC(=O)O (stereo not shown)	0.7833	3.642
CN1CCC(c2nc3ccc(-c4ccccc4)cn3n2)CC1	1.356	-
c1coc(CN2CCC3(CCOCC3COCC3CC3)CC2)c1 (stereo not shown)	2.036	-
Cc1cc(N[C@H]2CCCC[C@@H]2O)n2nccc2n1	0.216	13.45
CN(CC(O)CO)C(=O)c1coc(COc2cccc(F)c2)n1 (stereo not shown)	-4.206	-37.39
Cn1nc(CNC(=O)c2nc3ccccc3s2)c2c1CCOC2	-0.3802	0.9333
Cn1cc(C2COC3(CCN(C(=O)Cc4ccccc4)CC3)C2)cn1 (stereo not shown)	-1.856	7.925

Repeated from the top, 6 entries:

O=C(O)C(F)(F)F.O=C(O)C(F)(F)F.[H][C@]12C[C@@H](C(=O)N(C)Cc3ccccn3)CO[C@@]1([H])CCN(C)C2 gave B: 55.09%.
CCc1cc(O)nc(C2CCCN(Cc3ccncc3)C2)n1 (stereo not shown) gave A: 0.4854%; B: 13.93% and 4.734%.
CCn1nc(C)c2c1cnn2CCNS(=O)(=O)c1cccs1 gave A: 0.2551%; B: 29.79%.
CCc1noc(C(C)N2CCN(c3ccc(C#N)cc3F)CC2)n1 (stereo not shown) gave A: 8.502%; B: 46.06%.
Fc1cnc(N2CCO[C@H]3[C@H](OCCN4CCCC4)CC[C@@H]32)nc1 gave A: -1.733%.
CN(C)C(=O)CN1CCC2(CCCN(Cc3cccs3)C2)C1=O.O=C(O)C(F)(F)F (stereo not shown) gave B: 10.78%.